According to PMC10815131, “Novel Pitolisant-Derived Sulfonyl Compounds for Alzheimer Disease” (International Journal of Molecular Sciences, 2024):

System: Male C57BL/6 mice
Conditions: mouse, in vivo, ip

CN1[C@@H]2C[C@@H](OC(=O)[C@H](CO)c3ccccc3)C[C@H]1[C@@H]1O[C@@H]12 [scopolamine]
Discrimination index in NORT compared with controls: significantly lower discrimination index compared with controls
